# Assay results as given in the supplement of paper PMC8728848.
# The list shows a part of the results.
# B1: AcfC (Vibrio cholerae), Q57410 (protein)
# chain: MKSKNRFLLISLLSFSTSVFADVNLYGPGGPHVPLIKVAESFEKSQSKRVNITFGPQATWNDKAKKNADILFGASEHSALAIAEGHSERFSKFNIHPVFMREAIILVKKGNPKNIKGMADLLKPGIGIVVNDGAGVSNTSGTAVWEDSVGRMKNVEKLQAFRSNIHVFAPNSGSARKAFVDGEDIDAWITWVDWAIANPTIGDMVRMEDEYRIYRDFNVVLAKNPSSEAIDFFDYLTKSKDAEAIFQHYGWFK
# Columns and labels:
# Experiment in all cases: glycan array binding signal (z-score within array); higher = stronger binding
# Conditions in all cases: glycan notation: IUPAC condensed, linker removed
# [1] = target: GlcNAc(a1-4)Gal(b1-4)GalNAc
# Summary of the method: (§1)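 From the Consortium for Functional Glycomics database, 3228 arrays were curated, keeping only those whose protein sequence was available. Binding is given as a within-array Z-score averaged across arrays sharing a protein sequence and across linkers. Negative Z-scores can be read as non-binding.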
# [2] = target: GlcNAc(a1-4)Gal(b1-4)GlcNAc
# Summary of the method: as §1
# [3] = target: GlcNAc(a1-4)Gal(b1-4)GlcNAc(b1-3)Gal(b1-4)Glc
# Summary of the method: as §1
# [4] = target: GlcNAc(a1-4)Gal(b1-4)GlcNAc(b1-3)Gal(b1-4)GlcNAc
# Summary of the method: as §1
# [5] = target: GlcNAc(a1-4)Gal(b1-4)GlcNAc(b1-3)Gal(b1-4)GlcNAc(b1-3)Gal(b1-4)GlcNAc
# Summary of the method: as §1
# [6] = target: GlcNAc(a1-4)Gal(b1-4)GlcNAc(b1-3)Gal(b1-4)[Fuc(a1-3)]GlcNAc(b1-3)Gal(b1-4)[Fuc(a1-3)]GlcNAc
# Summary of the method: as §1
# [7] = target: GlcNAc(a1-6)Gal(b1-4)GlcNAc
# Summary of the method: as §1
# [8] = target: GlcNAc(b1-2)Gal(b1-3)GalNAc
# Summary of the method: as §1
# [9] = target: GlcNAc(b1-2)Man(a1-3)[GlcNAc(b1-2)Man(a1-6)]Man(b1-4)GlcNAc(b1-4)GlcNAc
# Summary of the method: as §1
# [10] = target: GlcNAc(b1-2)Man(a1-3)[GlcNAc(b1-2)Man(a1-6)]Man(b1-4)GlcNAc(b1-4)[Fuc(a1-6)]GlcNAc
# Summary of the method: as §1
# [11] = target: GlcNAc(b1-2)[GlcNAc(b1-4)]Man(a1-3)[GlcNAc(b1-2)Man(a1-6)]Man(b1-4)GlcNAc(b1-4)GlcNAc
# Summary of the method: as §1
# GlcNAc(b1-3)Gal = target: GlcNAc(b1-3)Gal
# Summary of the method: as §1
# [12] = target: GlcNAc(b1-3)Gal(b1-3)GalNAc
# Summary of the method: as §1
# GlcNAc(b1-3)Gal(b1-4)Glc = target: GlcNAc(b1-3)Gal(b1-4)Glc
# Summary of the method: as §1
# [13] = target: GlcNAc(b1-3)Gal(b1-4)GlcNAc
# Summary of the method: as §1
# [14] = target: GlcNAc(b1-3)Gal(b1-4)GlcNAc(b1-3)Gal(b1-4)GlcNAc
# Summary of the method: as §1
# GlcNAc(b1-3)GalNAc = target: GlcNAc(b1-3)GalNAc
# Summary of the method: as §1
# GlcNAc(b1-3)Man = target: GlcNAc(b1-3)Man
# Summary of the method: as §1
# [15] = target: GlcNAc(b1-3)[GlcNAc(b1-4)][GlcNAc(b1-6)]GlcNAc
# Summary of the method: as §1
# [16] = target: GlcNAc(b1-3)[GlcNAc(b1-6)]Gal(b1-4)GlcNAc
# Summary of the method: as §1
# [17] = target: GlcNAc(b1-3)[GlcNAc(b1-6)]GalNAc
# Summary of the method: as §1
# [18] = target: GlcNAc(b1-4)Gal(b1-4)GlcNAc
# Summary of the method: as §1
# GlcNAc(b1-4)GlcNAc = target: GlcNAc(b1-4)GlcNAc
# Summary of the method: as §1
# [19] = target: GlcNAc(b1-4)GlcNAc(b1-4)GlcNAc
# Summary of the method: as §1
# [20] = target: GlcNAc(b1-4)GlcNAc(b1-4)GlcNAc(b1-4)GlcNAc(b1-4)GlcNAc
# Summary of the method: as §1
# [21] = target: GlcNAc(b1-4)GlcNAc(b1-4)GlcNAc(b1-4)GlcNAc(b1-4)GlcNAc(b1-4)GlcNAc
# Summary of the method: as §1
# [22] = target: GlcNAc(b1-4)[GlcNAc(b1-6)]GalNAc
# Summary of the method: as §1
# [23] = target: GlcNAc(b1-6)Gal(b1-4)GlcNAc
# Summary of the method: as §1
# GlcNAc(b1-6)GalNAc = target: GlcNAc(b1-6)GalNAc
# Summary of the method: as §1
# GlcNAc3Prop(b1-4)GlcNAc = target: GlcNAc3Prop(b1-4)GlcNAc
# Summary of the method: as §1
# [24] = target: GlcNAc6S(b1-3)Gal(b1-4)GlcNAc
# Summary of the method: as §1
# Kdn(a2-3)Gal(b1-3)GalNAc = target: Kdn(a2-3)Gal(b1-3)GalNAc
# Summary of the method: as §1
# Kdn(a2-3)Gal(b1-3)GlcNAc = target: Kdn(a2-3)Gal(b1-3)GlcNAc
# Summary of the method: as §1
# Kdn(a2-3)Gal(b1-4)Glc = target: Kdn(a2-3)Gal(b1-4)Glc
# Summary of the method: as §1
# Kdn(a2-3)Gal(b1-4)GlcNAc = target: Kdn(a2-3)Gal(b1-4)GlcNAc
# Summary of the method: as §1
binder,measurement,setting,value
B1,glycan array binding signal (z-score),[1],-1.67
same,glycan array binding signal (z-score),[2],0.224
same,glycan array binding signal (z-score),[3],0.706
same,glycan array binding signal (z-score),[4],-0.733
same,glycan array binding signal (z-score),[5],1.1
same,glycan array binding signal (z-score),[6],0.779
same,glycan array binding signal (z-score),[7],-0.288
same,glycan array binding signal (z-score),[8],-0.601
same,glycan array binding signal (z-score),[9],0.375
same,glycan array binding signal (z-score),[10],1.06
same,glycan array binding signal (z-score),[11],-1.5
same,glycan array binding signal (z-score),GlcNAc(b1-3)Gal,-1.12
same,glycan array binding signal (z-score),[12],0.911
same,glycan array binding signal (z-score),GlcNAc(b1-3)Gal(b1-4)Glc,-0.701
same,glycan array binding signal (z-score),[13],-1.75
same,glycan array binding signal (z-score),[14],-0.8
same,glycan array binding signal (z-score),GlcNAc(b1-3)GalNAc,-0.63
same,glycan array binding signal (z-score),GlcNAc(b1-3)Man,-0.42
same,glycan array binding signal (z-score),[15],0.234
same,glycan array binding signal (z-score),[16],-0.193
same,glycan array binding signal (z-score),[17],-0.088
same,glycan array binding signal (z-score),[18],-1.16
same,glycan array binding signal (z-score),GlcNAc(b1-4)GlcNAc,-0.224
same,glycan array binding signal (z-score),[19],-1.53
same,glycan array binding signal (z-score),[20],-1.07
same,glycan array binding signal (z-score),[21],-1.21
same,glycan array binding signal (z-score),[22],1.25
same,glycan array binding signal (z-score),[23],-0.452
same,glycan array binding signal (z-score),GlcNAc(b1-6)GalNAc,-0.178
same,glycan array binding signal (z-score),GlcNAc3Prop(b1-4)GlcNAc,0.164
same,glycan array binding signal (z-score),[24],-1.22
same,glycan array binding signal (z-score),Kdn(a2-3)Gal(b1-3)GalNAc,-0.511
same,glycan array binding signal (z-score),Kdn(a2-3)Gal(b1-3)GlcNAc,0.128
same,glycan array binding signal (z-score),Kdn(a2-3)Gal(b1-4)Glc,0.616
same,glycan array binding signal (z-score),Kdn(a2-3)Gal(b1-4)GlcNAc,-0.338

# A stretch taken from the entries so far, as a working copy:
binder,measurement,setting,value
B1,glycan array binding signal (z-score),[22],1.25
same,glycan array binding signal (z-score),[23],-0.452
